From EP4420676A1 (Medizinische Hochschule Hannover, dated 2024)
No constants are given. Whether binding was seen depends on the method and setting. Some entries that bind do so weakly or less than the wild type.

How the values were obtained:
[1] = target: T1, human DGCR2 expressed on HEK293T cells (human, UniProt P98153 21-550); test: flow cytometry, soluble scFv on transfected HEK293T cells, anti-His PE
T1 construct: Transiently expressed on HEK293T cells from a vector with eGFP downstream of a P2A site; also called human antigen; DiGeorge Syndrom Critical Region 2
T1 sequence: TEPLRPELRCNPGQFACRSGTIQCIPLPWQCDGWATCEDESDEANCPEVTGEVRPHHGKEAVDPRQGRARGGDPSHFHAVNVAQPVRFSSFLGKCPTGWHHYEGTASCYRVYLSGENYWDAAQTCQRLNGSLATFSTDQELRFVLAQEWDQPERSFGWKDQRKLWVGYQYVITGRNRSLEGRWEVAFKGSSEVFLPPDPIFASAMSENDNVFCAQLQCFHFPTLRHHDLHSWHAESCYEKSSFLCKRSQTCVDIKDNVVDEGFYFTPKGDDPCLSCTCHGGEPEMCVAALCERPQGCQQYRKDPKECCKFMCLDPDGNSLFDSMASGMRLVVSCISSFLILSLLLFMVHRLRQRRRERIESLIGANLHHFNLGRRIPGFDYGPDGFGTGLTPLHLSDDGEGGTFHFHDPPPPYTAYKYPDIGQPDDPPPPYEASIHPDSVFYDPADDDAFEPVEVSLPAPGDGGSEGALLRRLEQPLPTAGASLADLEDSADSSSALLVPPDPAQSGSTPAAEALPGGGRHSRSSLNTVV

[2] = target: T2, murine DGCR2 expressed on HEK293T cells (mouse, UniProt P98154 25-548); test: as above
T2 construct: Transiently expressed on HEK293T cells from a vector with eGFP downstream of a P2A site; also called mouse DGCR2; murine antigen
T2 sequence: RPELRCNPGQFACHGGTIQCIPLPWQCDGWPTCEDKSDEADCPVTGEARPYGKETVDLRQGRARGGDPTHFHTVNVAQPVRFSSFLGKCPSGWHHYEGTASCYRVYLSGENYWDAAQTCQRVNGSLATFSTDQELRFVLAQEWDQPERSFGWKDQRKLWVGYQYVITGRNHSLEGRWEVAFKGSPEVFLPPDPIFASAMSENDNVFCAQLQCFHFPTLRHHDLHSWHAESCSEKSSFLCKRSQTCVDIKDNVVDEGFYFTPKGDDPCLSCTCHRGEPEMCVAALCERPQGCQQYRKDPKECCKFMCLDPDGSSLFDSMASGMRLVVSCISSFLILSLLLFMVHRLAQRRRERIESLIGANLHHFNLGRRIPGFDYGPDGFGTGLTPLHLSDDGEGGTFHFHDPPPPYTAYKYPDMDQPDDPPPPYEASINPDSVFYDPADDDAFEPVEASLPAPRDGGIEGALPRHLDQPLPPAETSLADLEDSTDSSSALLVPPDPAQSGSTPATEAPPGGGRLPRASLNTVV

[3] = target: T1, human DGCR2 expressed on HEK293T cells; test: flow cytometry, soluble scFv on transfected HEK293T cells (figure legend)
[4] = target: T2, murine DGCR2 expressed on HEK293T cells; test: as above

Measured: binding

B1: UK018-D4 scFv (scFv)
scFv: QVQLVQSGGGLVQPGGSLRLSCAASGFTFSNYAMSWVRQAPGKGLEWVSGISGGGDNTYYTDSVKGRFTISRDNSKNTLYLQMNSLTAEDTALYYCAKKQSGGSGWSLWGFDYWGQGTLVTVSSGSASALKLEEGEFSEARVQAVVTQEPSLTVSPGGTVTLTCASSTGAVTSGYYPSWFQQKPGQAPRPLIYNTNNKHSWSPARFSGSLLGGKAALTLSGVQPEDEADYYCLLYYGGRGVFGGGTRLTVLSQPKAAPSVTLFPPSSAAAGSEQKLISEEDLSHHHHHH
binds: [1] | [2] | [3] | [4]

B2: UK018-D3 scFv (scFv)
scFv: QVQLVESGGGLVQPGGSLRLSCAASGFTFSSNAMSWVRQAPGKGLEWVSAIGTGGTTYYADSVKGRFTISRDNSKNTLYLQMNSLRAEDTAVYYCAKTGQLDYWGQGTLVTVSSGSASAPKLEEGEFSEARVQSALTQPASVSGSPGQSITISCTGTSSDVGGYNYVSWFQQHPDKAPKLMIYDVSNRPSGVSNRFSGSKSGTSASLAISGLRSEDEADYYCAAWDDSLSGWVFGGGTKLTVLGQPKAAPSVTLFPPSSAAAGSEQKLISEEDLSHHHHHH
binds: [1] | [2] | [3] | [4]
